Experimental data taken from US4303660A, “Pyrazolo[1,5-c]quinazoline derivatives and analgesic compositions containing them” (priority 1979, dated 1981).

Columns and labels:
[1] = tested on: gastric acid secretion; assay type: in vivo; settings: 50 mg/kg p.o.; rats
Source text: The influence of the compounds of the invention on the gastric acid secretion was studied on rats weighing 170 to 260 g according to Shay [Gastroenterology, 5, 43 (1945)].

[2] = in vivo; settings: printed under the reference substance in Table III

SMILES: CN1[C@@H]2CC[C@H]1C[C@@H](OC(=O)C(CO)c1ccccc1)C2 (some centres unmarked) [atropine, reference compound]
- Inhibition of gastric acid secretion, percentage [1]: about 45 percentage
- LD50 [2]: 200 mg/kg
